# Reference: paper doi:10.1101/2021.10.20.465166
# Construct, isoform or probe ends are uncertain for at least one entry. At least one verdict rests on a figure or table, not on a statement of the authors.
# System: C/EBPα BRM2
# Experiment: EMSA
row,Sequence,binding result
1,CCCCCACCCAGCCAGGCCAAC [PU.1 intron 4 RNA (PU.1i4)],binds
2,UUCCCACUCACCCAGCACCC [CTBP1 intron 2 RNA (CTBP1i2)],binds
